# Reference: the supplement of paper PMC5949888
# Most values lie at the floor of the assay. Slopes are relative: functional sequences can read slightly below zero.
# Test system: Saccharomyces cerevisiae PS128 hsf1 delta, HSF1(1-493) fusion
# Assay: growth estimate (transactivation domain function in HSF1 fusion, heat-shock survival) (a.u. (slope of normalised read count over time)); higher = stronger growth at 37°C, i.e. more transactivation activity
# Conditions: library: random library
# Procedure: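 Random 60-nt DNA library encoding peptides of up to 20 aa, fused to the C-terminus of yeast HSF1 residues 1-493 (C-terminal TAD deleted) and expressed from the native HSF1 promoter on a CEN plasmid in hsf1-deleted S. cerevisiae PS128. Cells were selected at 37°C on -trp 5-FOA plates for 0, 2, 4, 6 and 8 days and amplicons were sequenced. Growth estimate is the slope of a robust linear fit of total-sum-normalised read counts (normalised to the first time point) over time, using at least 2 replicates. Sequences are classed functional (TAD activity) above a threshold of -0.13, set from stop-codon control sequences.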
row,Substance,growth estimate
1,YRRVCST,< -0.25
2,SGHYYARFYTLCGGTPRRQW,< -0.25
3,RRRGWAVEAARRVESRLMGP,< -0.25
4,IGKNLKWG,< -0.25
5,GEPLV,< -0.25
6,PCSIAAC,< -0.25
7,RLAVWVYLGTILCLCGESTR,< -0.25
8,KGGVMTSPDSLVSDYSEIGA,< -0.25
9,GQSGTGGLE,< -0.25
10,ELLGSRLKSGRTQSDL,< -0.25
11,HTQAHFRVPSCLRPTALGAV,< -0.25
12,FCWADPLLWSFAYSRSPCSE,-0.164
13,GKPPQA,< -0.25
14,HHGRQIRGLSIVTQLG,< -0.25
15,SPGHHSSPGRRGGLSTLSCA,< -0.25
16,PVVPKLRLRDQYEAFRSVCI,< -0.25
17,TDLSMSRPRHSGWLPSWDRS,< -0.25
18,GPMPRGWWEAGQFRASEPVR,< -0.25
19,INRPRRWY,< -0.25
20,LLGQFPKFALMTGEKWLCLK,< -0.25
21,LCPHSPFVANHGM,< -0.25
22,CNTSTDDSCK,< -0.25
23,WEKGVNIHPTDQSVNG,< -0.25
24,ISHRTRFVCSL,< -0.25
25,RCRGKRSMELSEGDSLSKDV,< -0.25
26,VRMSRHSTGRRKGGELPARI,< -0.25

row,Substance,growth estimate
1,KNDRVDIE,-0.243
2,RTSSRGGSQYSSRAS,< -0.25
3,DQLG,< -0.25
4,EILESYAGQLWNSSDGRSFY,< -0.25
5,EVGSSFGP,< -0.25
6,RKSCEVGATKSLHGVEPLRA,< -0.25
7,CFSYQQRRFNGMRKPN,< -0.25
8,RNT,< -0.25
9,GMYRLPDSTRALNLAAL,< -0.25
10,WTGREMSSWCVVYWPNRQVS,< -0.25
11,AACYP,-0.209
12,LEYVHPDVQRREADLVVPCL,< -0.25
13,GAQSGTRV,-0.208
14,LECLGSKPAFTWGGQQSSAQ,< -0.25
15,LLKGEAEIRGSCLNRTLVHQ,< -0.25
16,IESAPAMKGLCRRRAPQMGR,< -0.25
17,NSWWAL,< -0.25
18,EHEA,< -0.25
19,GALVGFLGRVALWKSGLPAY,< -0.25
20,IKAIPGPLESPPGRCERD,< -0.25
21,NCGRGGQSSG,-0.245
22,RDGSAGPIGVSTCEYIYSRV,< -0.25
23,SMKFVGVFITLLHSARRGVS,< -0.25
24,FVGESYVRVKARGKKRTIKS,< -0.25
25,MRGNGVGIGAIGDKR,< -0.25
26,TKSEMSCLLDAVVVEFVFVM,< -0.25

row,Substance,growth estimate
1,DRLSQSWEGTPQGA,< -0.25
2,RASTAT,< -0.25
3,GDWATFSLTLGVI,< -0.25
4,LIDGCKKVRQRRVNS,< -0.25
5,GCGVGDQSLESSIRTVIG,< -0.25
6,NTAADANTDTSVRCVADQGC,< -0.25
7,SDEGFTADCHGCSAPLMLPC,< -0.25
8,RIFRT,< -0.25
9,RERPCRAYA,< -0.25
10,TQPVGTNFSARRGNILTEPS,< -0.25
11,AVDASNSEAGAYLSRQCRNV,< -0.25
12,NRKHGLEVLGAQPVDDVHP,< -0.25
13,FGRTELGCFLWTCLNFERFI,< -0.25
14,LVLGKLFLYGRSRHLQSLRC,< -0.25
15,LVDAVASNVFSA,< -0.25
16,TRFKAKLWSTSLVVECVAGL,< -0.25
17,VHTLTIKSVVVFDVHGSTGN,< -0.25
18,LKGHRDVTQIRSKREHL,< -0.25
19,GLG,< -0.25
20,ETGSHRYGRP,< -0.25
21,CSSIIHAMPAVS,< -0.25
22,AKMQGWNVSLYRTRREPDNE,< -0.25
23,CDQTSLPPGRRRNIAWAPDT,< -0.25
24,SDGIRAF,< -0.25
25,ILDSVAVRWNLWVAAMVSAA,< -0.25
26,GFTMITIHRIYRWMSCPHLP,< -0.25

row,Substance,growth estimate
1,DGSWRMLGGDAEDKVGIRSL,< -0.25
2,SLR,< -0.25
3,LYGTE,< -0.25
4,SHGLPSPGLHVMAEPTWNQA,< -0.25
5,GTRSGH,< -0.25
6,KRKSMSIWQDY,< -0.25
7,VGVGVLDNKIYVSPQRSRGS,< -0.25
8,VWNRVQRSQSNANR,< -0.25
9,SRCTSVSGVPANGALTSG,< -0.25
10,ARSFGHVSAY,< -0.25
11,QPRGR,< -0.25
12,RPLPRNGVTY,< -0.25
13,SPIRQHKPPTWS,< -0.25
14,PNRRRGYFAMVWIVNGHRLK,< -0.25
15,SDLVDNEADVRSTGSQGVGN,< -0.25
16,SDKPHGSLMDSISTMRVRGD,< -0.25
17,LGKSDTMTLQSLADIPRTAP,< -0.25
18,LCKYAVRNVSLRYAYESDLT,0.0112
19,DWASHNA,< -0.25
20,KWTSTHT,< -0.25
21,VVHTQVEKA,< -0.25
22,PWQIEGPMCTRVWWSNRTLT,< -0.25
23,INL,< -0.25
24,RICVRQGLSSLR,< -0.25
25,GVPTFEHSLYSLASHQ,< -0.25
26,RNYGFSLRGMGTDRELMD,< -0.25

row,Substance,growth estimate
1,NFMTLSLNGA,< -0.25
2,LRLLDGHRPWSD,< -0.25
3,QIGLTYLCVFGGGSLV,< -0.25
4,CRTCGLTMRIRSDAGTVRNH,< -0.25
5,SIKTTKTRLRKSP,< -0.25
6,SVPTGVAVTPAAQRLDDPAF,< -0.25
7,CRVAKLGFSPQTLRCSHATF,< -0.25
8,KWVAPKSDLVCLQRIPMPGI,< -0.25
9,VFGTRRGKRGNVQCLGNQGE,< -0.25
10,HLLSAS,< -0.25
11,PTGACRISSAFAPDL,< -0.25
12,STQ,< -0.25
13,VDGTWGVHTVDMSLHRSRST,< -0.25
14,SLNLVTP,< -0.25
15,QIQATWRPHDKFGRKFTMTP,< -0.25
16,CSHTFRVGPPYRGRGIDKCL,< -0.25
17,VMSTGRKSTGTGWLLGSQCG,-0.232
18,SVWAKRERARRATYYVVRRI,-0.214
19,KPEAGARRIITGFFCTTSGV,< -0.25
20,SYF,< -0.25
21,VSCLGINASGKWSKDQSRTS,< -0.25
22,RYWVQNRTQLVLLGTEAIGP,< -0.25
23,AATY,< -0.25
24,SCDLSELSLGHHVKRLTCWQ,< -0.25
25,NTF,< -0.25
26,RTRCSLEIDSMYTFFCKAHN,< -0.25

row,Substance,growth estimate
1,GPWVDTDC,< -0.25
2,STRIQVATLTRESPSY,< -0.25
3,TGGAGDVGKRLDCCSIIGNS,< -0.25
4,RPETANCYLSGDPRQRHRPC,< -0.25
5,RLGLVGRSI,< -0.25
6,AAGHYGTVVGQ,< -0.25
7,RPKTIPRLRPTAHETGAAKP,-0.248
8,RGDGHGV,< -0.25
9,LDAVRRGSFPPV,< -0.25
10,IEVLSRLGGHSGTAISLYAA,< -0.25
11,IDLLMNCKLPGPLPLAPRRR,< -0.25
12,VYILQHRW,< -0.25
13,RNAERSTPVLDDTAEVTGQG,< -0.25
14,LPSLSNPDS,< -0.25
15,GRGLRVYNWAGSIFGFRLAV,< -0.25
16,ITLGSPVIFDAGYCCPDSTC,< -0.25
17,PESHILGGPQDYWTPIASLS,< -0.25
18,ADRTFEWQCHFRTFE,< -0.25
19,DGSRRVKYAQ,< -0.25
20,SGDPEVSLITYMSTASMSRA,< -0.25
21,YFQGKPHTRK,-0.243

# In a second layout: results already given
row | Substance | growth estimate
8 | RGDGHGV | < -0.25
9 | LDAVRRGSFPPV | < -0.25
10 | IEVLSRLGGHSGTAISLYAA | < -0.25
11 | IDLLMNCKLPGPLPLAPRRR | < -0.25
12 | VYILQHRW | < -0.25
13 | RNAERSTPVLDDTAEVTGQG | < -0.25
